Data: article doi:10.1101/2024.10.25.620017

By UniProt entry, the sequences of proteins in these tests, tags left out.
UniProt P62960: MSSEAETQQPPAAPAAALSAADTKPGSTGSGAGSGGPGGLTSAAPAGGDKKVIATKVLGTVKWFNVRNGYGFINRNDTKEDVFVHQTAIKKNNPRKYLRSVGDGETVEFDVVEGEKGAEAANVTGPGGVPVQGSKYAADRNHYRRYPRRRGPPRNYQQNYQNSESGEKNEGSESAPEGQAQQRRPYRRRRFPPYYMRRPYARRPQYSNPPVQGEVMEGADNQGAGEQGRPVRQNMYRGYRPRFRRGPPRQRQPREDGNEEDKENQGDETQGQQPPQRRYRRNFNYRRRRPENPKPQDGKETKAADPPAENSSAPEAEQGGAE
UniProt Q61103: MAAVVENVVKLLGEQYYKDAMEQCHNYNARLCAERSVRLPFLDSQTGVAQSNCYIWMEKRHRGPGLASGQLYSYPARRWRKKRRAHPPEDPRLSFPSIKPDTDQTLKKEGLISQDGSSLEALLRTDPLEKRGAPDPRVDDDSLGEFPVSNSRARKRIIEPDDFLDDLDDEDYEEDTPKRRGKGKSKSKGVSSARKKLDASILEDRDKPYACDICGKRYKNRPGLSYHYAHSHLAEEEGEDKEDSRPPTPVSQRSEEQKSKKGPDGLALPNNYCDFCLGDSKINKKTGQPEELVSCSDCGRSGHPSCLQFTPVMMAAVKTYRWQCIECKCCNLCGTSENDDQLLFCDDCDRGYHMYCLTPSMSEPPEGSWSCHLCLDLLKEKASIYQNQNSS
UniProt P28033: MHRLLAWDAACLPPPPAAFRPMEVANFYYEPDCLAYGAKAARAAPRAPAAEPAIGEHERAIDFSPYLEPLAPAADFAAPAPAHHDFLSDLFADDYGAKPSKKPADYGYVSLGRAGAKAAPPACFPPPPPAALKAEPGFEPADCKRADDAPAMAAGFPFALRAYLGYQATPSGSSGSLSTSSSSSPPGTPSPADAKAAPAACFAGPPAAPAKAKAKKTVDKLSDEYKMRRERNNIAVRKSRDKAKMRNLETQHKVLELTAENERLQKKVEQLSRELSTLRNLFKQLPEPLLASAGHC
UniProt P53566: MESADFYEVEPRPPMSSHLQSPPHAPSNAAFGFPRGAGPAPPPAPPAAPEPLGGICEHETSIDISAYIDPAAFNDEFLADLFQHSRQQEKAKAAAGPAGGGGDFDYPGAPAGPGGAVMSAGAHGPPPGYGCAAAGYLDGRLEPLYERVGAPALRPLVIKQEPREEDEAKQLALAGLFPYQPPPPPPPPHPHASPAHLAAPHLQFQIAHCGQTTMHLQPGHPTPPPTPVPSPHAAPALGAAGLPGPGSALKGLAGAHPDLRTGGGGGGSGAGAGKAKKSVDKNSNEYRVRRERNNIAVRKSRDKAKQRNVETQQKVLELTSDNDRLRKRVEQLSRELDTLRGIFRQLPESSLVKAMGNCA

Target: Y box-binding protein 1 (YBX1) (mouse (endogenous in mouse liver)) (UniProt P62960)
Assay: affinity purification with mass spectrometry

In the case of DPF2 (from UniProt Q61103 1-391), the binding is reported as “binds”.

For Cebpb (from UniProt P28033 1-296), the binding was “binds”.

“CCAAT-enhancer-binding protein alpha (C/EBPα) (from UniProt P53566 1-359)” was tested, and the binding was “binds”.

Results are given in words; binding and its absence hold for the method and conditions named. Binding seen in cells or lysates may run through a third protein. A yes stands for co-enrichment or nearness to the bait. Other partners may have been found.
